# Test results: US11795510B2, “Identification of epigenomic reprogramming in cancer and uses thereof” (The Johns Hopkins University, priority 2016, dated 2023)
# System: A38Lg cells
# Assay: RNA-seq of control (DMSO) and 6AN treated cells, differentially expressed genes
# Format: cell-based, human
# Protocol: RNAi experiments were performed with siRNA transfections (Oligofectamine, Life Technologies) using negative control siRNA (Sigma, SIC001) and pre-designed siRNA oligonucleotides against indicated genes in parallel (Sigma, PGD: SASI_Hs02 00334150, CDH2: SASI_Hs01_00153995, TOP2B: SASI_Hs02_00311874). siRNAs against mutant KRAS^G12V (CUACGCCAACAGCUCCAAC) (SEQ ID NO:1) were custom designed. Cells were incubated with siRNAs for 4 days after transfection and harvested. For drug treatments in 2-D, cells were grown to 70-80% confluency and treated for 3 days with 250 uM 6AN or DMSO negative control.
# Tests for statistical significance (two-tailed students t-test) were performed on data collected from technical replicate (performed in parallel at the same time) or biological replicate (performed at different times) experiments as indicated in the figure legends using excel software for western blot densitometry, MTT assays, and tumor measurements. Whole genome bisulfite sequencing and RNA-seq were performed with HiSeq instruments (Illumina) as described in Hansen et al. (Increased methylation variation in epigenetic domains across cancer types. Nat Genet 43, 768-75 (2011)). ChIP assays were performed as previously described for fixed cells with sonication. For ChIP-qPCR, equal amounts of paired input/IP DNA were amplified by real-time PCR (Roche LightCycler96) and fold enrichments calculated. Primer sequences are listed in Supplementary Table 11. […] IP sequencing reads were normalized to their corresponding inputs. Sequencing procedures, bioinformatics methods including domain calls, and statistical analyses are described in detail within the supplementary methods section.
# RNA-Seq data processing. 100 bp paired-end HiSeq2000 sequencing reads were aligned against human genome (hg19) by OSA (version 2.0.1) with default parameters. After alignment, only uniquely aligned reads were kept for further analysis. Gene annotation information was downloaded from ENSEMBL (ensembl.com, release 66). Reads count for each gene of all samples were estimated using HTSeq (huber.embl.de/users/anders/HTSeq/doc/overview.html) and then were used to identify differentially expressed (DE) genes using DESeq package. Genes with FDR<0.01 and fold-change>1.5 were considered DE genes.
smiles,measurement,setting,value
"NC(=O)c1ccc(N)nc1 [6AN, 6-aminonicotinamide]",share of recurrently over-expressed genes across distant metastatic subclones down-regulated by 6AN,,29%
same,share of 6AN down-regulated genes from A38Lg that were over-expressed in this subclone vs. peritoneal subclone,A38Lg,52%
same,share of 6AN up-regulated genes that matched DE genes that were repressed,A38Lg,42%
same,6AN down-regulated genes from A38Lg that were over-expressed in this subclone / all 6AN down-regulated genes,"A38Lg, gene counts",952/1832
same,6AN up-regulated genes that matched repressed DE genes / all 6AN up-regulated genes,"A38Lg, gene counts",914/2122
same,recurrently over-expressed genes down-regulated by 6AN / all recurrently over-expressed genes,gene counts,255/891
